# Experimental data taken from PubChem BioAssay AID485353 (National Center for Advancing Translational Sciences (NCATS), 2010).
# The whole screen tested about 330,000 compounds, of which about 610 (0.18%) were called active. This list was built around the results that the source calls inconclusive (neither active nor inactive); the mix of calls is not that of the screen. The call rests on the fitted dose curve. Potencies beside an inconclusive call are fits to weak or partial responses and may not hold up.
# Test: qHTS of Yeast-based Assay for SARS-CoV PLP; further: nearly all actives have a fitted effect of over 55% in size; on activity, positive = growth rescue: 0% is about no effect
# Details: S. cerevisiae expressing SARS-CoV PLpro; Potency: growth rescue; activity, positive = growth rescue: at 32.9 µM (top of the series)
# Potency means the concentration at half of the fitted maximal effect.
SMILES,Potency,"activity, positive = growth rescue"
CCOC(=O)Cn1nnnc1CN(Cc1ccc(OC)cc1)Cc1cc2cc(CC)ccc2[nH]c1=O,"inconclusive: 22.4 µM [activator, single point]",
CN(C)CCNC(NC(=O)c1cccs1)C(Cl)(Cl)Cl (stereo unspecified),inactive,
COc1ccc(C(=O)NCCCNC(=O)c2ccccn2)cc1,inactive,
c1ccc(C[n+]2csc3ccccc32)cc1,inactive,
COc1cc(/C=C2\SC(=O)N(CCNC(=O)c3cnc(C)cn3)C2=O)cc(OC)c1OC,"inconclusive: 2.51 µM [activator, single point]",
COc1ccc(CNC(=O)C(NC(C)=O)C(=O)Nc2ccc(C(C)C)cc2)cc1 (stereo unspecified),inactive,
CC1=C/C(=N\NC(=S)NCc2ccccc2)CC1,"inconclusive: 3.98 µM [activator, single point]",
O=C1NC(c2ccccc2Cl)Nc2ccccc21 (stereo unspecified),inactive,
COc1ccc(CCNC(=O)CSc2nc3[nH]ncc3c(=O)n2-c2ccc(C)c(Cl)c2)cc1OC,inactive,
CNC(=O)NC(=O)COC(=O)c1ccccc1OCc1ccccc1,inactive,
O=C1NCCCCC1NC1CC(=O)N(c2ccccc2)C1=O (stereo unspecified),inactive,
O=C(CSc1nnc(NC(=O)c2ccccc2F)s1)NCC1CCCO1 (stereo unspecified),inactive,
CCCCCN(C(=O)NC(=O)Nc1ccccc1C)S(C)(=O)=O,"inconclusive: 3.55 µM [activator, single point]",
CC(NC(=S)Nc1c(Cl)cccc1OC(F)F)C(C)(C)C (stereo unspecified),"inconclusive: 14.1 µM [activator, single point]",
COc1ccccc1C(=O)NNC(=O)C1CC=CCC1 (stereo unspecified),inactive,
CCC1CCCCN1CCCNC(=O)Cn1ncc2c([nH]c3ccc(C)cc32)c1=O (stereo unspecified),"inconclusive: 11.2 µM [activator, partial curve]",
CC1(C)C(=O)C2(CCCCC2)C(=O)OC1c1cccn1-c1ccc([N+](=O)[O-])cc1 (stereo unspecified),"inconclusive: 4.47 µM [activator, single point]",
CCn1c(=O)n(CC(=O)NCc2ccco2)c(=O)c2ccccc21,"inconclusive: 3.98 µM [activator, single point]",
CCCc1ccc(C(=O)NNC(=O)c2ccc(Cl)cc2)cc1,inactive,
Cn1cnnc1SCC(=O)Nc1ccc(Oc2ccccc2)cc1,"inconclusive: 2.24 µM [activator, full curve]",
COc1cc(NS(=O)(=O)c2ccccc2)ccc1-n1nc(C)cc1C,"inconclusive: 22.4 µM [activator, partial curve, poor fit]",
COc1ccc(NC(=S)N2CCNC(=O)C2CC(=O)Nc2ccc(C)cc2)cc1 (stereo unspecified),"inconclusive: 20 µM [activator, single point]",
COc1ccccc1N1CCN(c2ncnc3nc[nH]c23)CC1,"inconclusive: 0.398 µM [activator, full curve, poor fit]",
Cc1nc2ccccc2n1CC(=O)N/N=C\C=C\c1ccccc1,"inconclusive: 0.316 µM [activator, full curve]",

SMILES,Potency,"activity, positive = growth rescue"
O=C(N1CCN(Cc2ccccc2)CC1)C(Cl)(Cl)Cl,"inconclusive: 7.94 µM [activator, partial curve]",
COc1ccc2c(c1)c1nc3n(c(=O)c1n2CC(=O)Nc1ccccc1)CCS3,"inconclusive: 17.8 µM [activator, single point]",
CC1=C(C(=O)Nc2ccc(C)cc2C)C(c2cccc([N+](=O)[O-])c2)n2nc(C(=O)OC(C)C)nc2N1 (stereo unspecified),"inconclusive: 3.55 µM [activator, single point]",
OCc1nc(CO)n(Cc2ccccc2)n1,"inconclusive: 15.8 µM [activator, partial curve]",
O=c1/c(=C/c2ccc(O)cc2)sc2n1CCCN=2,"inconclusive: 2.82 µM [activator, single point]",
COc1ccc(S(=O)(=O)CCC(=O)Nc2ccc(OC)cc2OC)cc1,"inconclusive: 20 µM [activator, single point]",
O=C(CCc1ccc(S(=O)(=O)N2CCOCC2)cc1)N/N=C/c1cccc(O)c1,"inconclusive: 22.4 µM [activator, single point]",
O=C(N/N=C/c1c(O)n(CCC2=CCCCC2)c(=S)[nH]c1=O)c1ccccc1,active: 11.2 µM,
COc1ccccc1NC(=O)CN1CCN(C2c3ccccc3-c3ccccc32)CC1,"inconclusive: 11.2 µM [activator, single point]",
O=C(c1cc2cc(Cl)ccc2[nH]1)N1CCN(C(=O)c2ccco2)CC1,"inconclusive: 3.55 µM [activator, partial curve]",
CN(C)C(CNC(=O)CCNC(=O)c1ccccc1Cl)c1ccco1 (stereo unspecified),,inactive: 2.5% [at 6.58 µM]
O=C(COc1ccc([N+](=O)[O-])cc1Cl)N1CCOCC1,inactive,
CC(CCc1ccco1)NC(=O)CCc1nnc2ccc(NCc3ccccc3)nn12 (stereo unspecified),"inconclusive: 22.4 µM [activator, single point]",
C=CC[C@H](CC(=O)N(CCO)Cc1ccccc1)C(=O)NCCOC(=O)[C@@H](CC=C)CC(=O)OC(C)(C)C,inactive,
Cc1nnc2sc(SCC(=O)Nc3ccc(Cl)cc3)nn2c1=O,inactive,
COc1cc(N/N=C/c2ccccc2O)ncn1,active: 8.91 µM,
CC(=O)c1ccc(NC(=S)N2C(C)CCCC2C)cc1 (stereo unspecified),"inconclusive: 11.2 µM [activator, partial curve]",
CC(NC(=O)CC1Nc2ccccc2NC1=O)c1ccccc1 (stereo unspecified),"inconclusive: 2.51 µM [activator, single point]",
O=C1/C(=C/c2cccc(Br)c2)SC(=S)N1/N=C/c1cc([N+](=O)[O-])ccc1O,"inconclusive: 12.6 µM [activator, single point]",
C=CCn1c(SCC(=O)NCC2CCCO2)nc2scc(-c3ccco3)c2c1=O (stereo unspecified),"inconclusive: 20 µM [activator, single point]",
CN1CCc2c(sc(NC(=O)Cc3ccccc3)c2C(N)=O)C1,"inconclusive: 10 µM [activator, single point]",
Cc1ccc(N2CC(C(=O)Nc3ccc4c(c3)OCCO4)CC2=O)cc1C (stereo unspecified),inactive,
O=C(NCCOc1nc(N2CCCCC2)nc(N2CCOCC2)n1)Nc1ccccc1,"inconclusive: 12.6 µM [activator, single point]",
CCOc1ccc(CCNC(=O)COC(=O)/C=C/c2ccc(OC)c(OC)c2)cc1OCC,inactive,

# Single records (already shown).
# COc1cc(N/N=C/c2ccccc2O)ncn1 reads Potency: active: 8.91 µM
# CC(CCc1ccco1)NC(=O)CCc1nnc2ccc(NCc3ccccc3)nn12 (stereo unspecified) reads Potency: inconclusive: 22.4 µM [activator, single point]

# Further entries follow.

SMILES,Potency,"activity, positive = growth rescue"
Cc1ccc(-n2ncc3c(SCc4cccnc4)ncnc32)c(C)c1,inactive,
COc1ccccc1CNC(=O)c1cc(C(C)C)nc2ccccc12,"inconclusive: 4.47 µM [activator, single point]",
COCCn1cnnc1SCC(=O)Nc1cccc(S(=O)(=O)N2CCCCCC2)c1,"inconclusive: 4.47 µM [activator, single point]",
C=C(C)CNC(=S)N/N=C/c1ccc(N2CCOCC2)cc1,"inconclusive: 20 µM [activator, single point]",
O=C(CSc1nnc(-c2cccnc2)n1Cc1ccccc1)N1CCOCC1,"inconclusive: 22.4 µM [activator, single point]",
Cc1nc2cc(C(=O)OCC(=O)Nc3cccc(Cl)c3)ccc2n1-c1ccccc1,"inconclusive: 20 µM [activator, partial curve]",
COc1ccc(CCNC(=O)/C(C#N)=C/c2cccc(OCc3ccccc3)c2)cc1OC,inactive,
CCOC(=O)[C@H]1[C@H]2COc3ccc(Cl)cc3[C@@H]2N2C(=O)CN(Cc3ccc(Cl)cc3)C(=O)[C@@]12C,inactive,
CC(=O)c1ccc(-c2ccc(C(=O)Nc3nc(-c4ccccn4)cs3)o2)cc1,inactive,
Cc1cc(Nc2cccc(Cl)n2)n(-c2ccccc2)n1,"inconclusive: 12.6 µM [activator, partial curve]",
C=CCNC(=O)c1ccc(OC2CCN(S(=O)(=O)N(C)C)CC2)cc1,inactive,
Cc1cc(C(=O)COC(=O)CC2Sc3ccccc3NC2=O)c(C)n1-c1ccccc1 (stereo unspecified),"inconclusive: 2.82 µM [activator, partial curve]",
CCOc1ccc(NC(=O)CSCC(=O)O)cc1,"inconclusive: 3.98 µM [activator, partial curve]",
CC(C)CNS(=O)(=O)c1ccc(CCC(=O)NCc2ccc(Cl)cc2)cc1,"inconclusive: 3.98 µM [activator, single point]",
CCOc1ccc(-c2[nH]ncc2-c2ccc(Cl)cc2)c(O)c1,inactive,
Cc1nnc2c3ccccc3c(-c3ccc(O)cc3)nn12,"inconclusive: 4.47 µM [activator, single point]",
COc1cccc(C(=O)N2CCN(S(=O)(=O)Cc3ccccc3)CC2)c1,"inconclusive: 2.24 µM [activator, partial curve]",
CC1CCCN(c2nc3c(c(=O)[nH]c(=O)n3C)n2CCCc2ccccc2)C1 (stereo unspecified),"inconclusive: 3.98 µM [activator, single point]",
COc1ccc(CNC(=O)C2CCN(c3nn4c(=O)cc(C)nc4s3)CC2)cc1,"inconclusive: 2.24 µM [activator, full curve, poor fit]",
CC(=O)NC(c1cccs1)c1cc([N+](=O)[O-])c2cccnc2c1O (stereo unspecified),"inconclusive: 1.41 µM [activator, partial curve, poor fit]",
Nc1c(/C=C2/C=CC(=O)C(O)=C2)c(=O)nc2sc(CC(=O)N3CCCCC3)nn12,active: 11.2 µM,
Cc1cccc(N2CCN(c3nnnn3-c3ccccc3)CC2C)c1 (stereo unspecified),"inconclusive: 4.47 µM [activator, partial curve]",
O=C(N/N=C/c1cc([N+](=O)[O-])ccc1O)C1CCCCC1,"inconclusive: 12.6 µM [activator, single point]",
